These are yes or no findings as the source states them, for the method shown. Some results given as binding are weak or reduced against the parent protein; the word gives no strength. Sequences can lack the tags named with a protein.
Target: T1, GST-Dpb4 (fission yeast (Schizosaccharomyces pombe)) (UniProt P87174)
T1 sequence: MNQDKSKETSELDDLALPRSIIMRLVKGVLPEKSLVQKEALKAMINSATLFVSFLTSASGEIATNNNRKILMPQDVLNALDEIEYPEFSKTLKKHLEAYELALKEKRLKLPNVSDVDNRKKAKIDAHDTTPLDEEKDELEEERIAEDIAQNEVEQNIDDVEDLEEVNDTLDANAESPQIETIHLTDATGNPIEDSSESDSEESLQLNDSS
Assay: co-purification in two affinity steps; coexpression of GST-Dpb4 and 6xHis-Dpb3, then Talon and GST resins

binding: binds
B1: 6xHis-Dpb3 (protein, UniProt C6Y4D0 1-87)
chain: MEKTYGKTVLPLSRVKRIIKQDEDVHYCSNASALLISVATELFVEKLATEAYQLAKLQKRKGIRYRDVEDVVRKDDQFEFLSDLFSI
